# Structures can show the parent of a compound that is named as a salt. This is one part of the list. Small differences around the control level are noise. *1 amine or outer side, *2 acyl side, *3 side chain or, on linkers, in order; H or OH if unused. Where a SMILES comes first, the peptide text is derived from it. Bridges are numbered along the chain shown (N, C = ends). [ ]: non-standard residue; d: D form. The star is where a group is joined. pTerphenylCO(4''-OnC5H11) = CCCCCOc1ccc(-c2ccc(-c3ccc(C(=O)*)cc3)cc2)cc1; Orn(4R-OH,5R-OH) = O=C([C@H](C[C@@H](O)[C@@H](O)N[*:3])N[*:1])[*:2]; hTyr(3S-OH,4S-OH) = N[C@H](C(=O)O)[C@H](O)[C@@H](O)c1ccc(O)cc1; Pro(3S-OH,4S-Me) = C[C@H]1CN[C@H](C(=O)O)[C@H]1O; Hyp = O=C(O)[C@@H]1C[C@@H](O)CN1
# Tested on: hPSC-derived cortical neurons (WA09)
# Assay: nucleus area z-score vs screen plate; higher = larger nuclei (more mature)
# Conditions: 5 µM; treatment: days 7-14 after plating, readout day 21
row,SMILES,nucleus area z-score
1,COc1cc2nc(N(C)CCCNC(=O)C3CCCO3)nc(N)c2cc1OC (stereo not given) [Alfuzosin HCl],-0.627
2,CC[C@H](C)n1cc(C)c2c(C(=O)NCc3c(C)cc(C)[nH]c3=O)cc(-c3ccc(N4CCNCC4)nc3)cc21,-0.423
3,OC[C@H]1O[C@@H](Oc2ccc(O)cc2)[C@H](O)[C@@H](O)[C@@H]1O [Arbutin],-0.182
4,NC(=O)[C@@H](CCC(F)(F)F)N(Cc1ccc(-c2ncon2)cc1F)S(=O)(=O)c1ccc(Cl)cc1,-0.496
5,O=C(O)CCNC(=O)c1ccccc1 [Betamipron],1.67
6,CN(C)Cc1c(C(=O)NCCOc2ccc(C(=O)NO)cc2)oc2ccccc12,-7.26
7,OCCn1cc(-c2ccc3c(c2)CC/C3=N\O)c(-c2ccncc2)n1,0.604
8,OCc1c[nH]c2ccccc12 [Indole-3-carbinol],-0.559
9,Cc1cc(=O)oc2cc(O)ccc12 [4-Methylumbelliferone (4-MU)],0.702
10,CC1(C)CCC(C)(C)c2cc(NC(=O)c3ccc(C(=O)O)cc3)ccc21 [Tamibarotene],1.27
11,"CCCCCOc1ccc(-c2ccc(-c3ccc(C(=O)N[C@H]4C[C@@H](O)[C@@H](O)NC(=O)[C@@H]5[C@@H](O)[C@@H](C)CN5C(=O)[C@H]([C@@H](C)O)NC(=O)[C@H]([C@H](O)[C@@H](O)c5ccc(O)cc5)NC(=O)[C@@H]5C[C@@H](O)CN5C(=O)[C@H]([C@@H](C)O)NC4=O)cc3)cc2)cc1 ({pTerphenylCO(4''-OnC5H11)}-[Orn(4R-OH,5R-OH)]T[Hyp][hTyr(3S-OH,4S-OH)]T[Pro(3S-OH,4S-Me)]; lactam 1-C)",1.13
12,O=C(Nc1ccccc1)OCC(CN1CCCCC1)OC(=O)Nc1ccccc1 (stereo not given) [Diperodon HCl],-0.559
13,CC(C)c1cc(C(C)C)c(CC(=O)NS(=O)(=O)Oc2c(C(C)C)cccc2C(C)C)c(C(C)C)c1 [Avasimibe],0.357
14,OC(CCN1CCCCC1)(c1ccccc1)C1CCCCC1 (stereo not given) [Trihexyphenidyl hydrochloride],0.336
15,O=C(Nc1cc(Cl)cc2c1[nH]c1cnccc12)c1cccnc1,1.66
16,CN1C(=O)[C@@H](NC(=O)c2cc(Cc3ccccc3)on2)COc2ccccc21,-1.97
17,CC(=O)O[C@H]1C[C@@]2(C)[C@@H](C[C@@H](O)[C@H]3[C@@]4(C)CC[C@@H](O)[C@@H](C)[C@@H]4CC[C@@]32C)/C1=C(\CCC=C(C)C)C(=O)O [Fusidate Sodium],0.074
18,C=CC(=O)N1C/C(=C\c2ccc([N+](=O)[O-])cc2)C(=O)/C(=C/c2ccc([N+](=O)[O-])cc2)C1,-4.05
19,Nc1cc(C(Cl)=C(Cl)Cl)c(S(N)(=O)=O)cc1S(N)(=O)=O [Clorsulon],1.37
20,Cc1cnc(Nc2ccc(OCCN3CCCC3)cc2)nc1Nc1cccc(S(=O)(=O)NC(C)(C)C)c1,-5.12

row,SMILES,nucleus area z-score
1,Cc1[nH]c(/C=C2\C(=O)Nc3ccccc32)c(C)c1CCC(=O)O [TSU-68 (SU6668_ Orantinib)],0.109
2,CN(C)CCOC(C)(c1ccccc1)c1ccccn1 (stereo not given) [Doxylamine Succinate],0.418
3,COc1ccccc1OCCNCC(O)COc1cccc2[nH]c3ccccc3c12 (stereo not given) [Carvedilol],1.34
4,CN1CCC(OC(c2ccccc2)c2ccccc2)CC1 [Diphenylpyraline HCl],-0.722
5,CC1=C(C(=O)OC(C)C)C(c2cccc([N+](=O)[O-])c2)C(C(=O)OC2CN(C(c3ccccc3)c3ccccc3)C2)=C(N)N1 (stereo not given) [Azelnidipine],-7.73
6,CCCCNc1cc(C(=O)O)cc(S(N)(=O)=O)c1Oc1ccccc1 [Bumetanide],0.105
7,C[C@H]1c2cccc(O)c2C(=O)C2=C(O)[C@]3(O)C(=O)C(C(N)=O)=C(O)[C@@H](N(C)C)[C@@H]3[C@@H](O)[C@@H]21 [Doxycycline Hyclate],2.8
8,CC(CN1c2ccccc2Sc2ccccc21)N(C)C (stereo not given) [Promethazine HCl],0.0909
9,COc1ccc(CCNCc2ccc(OCc3ccc(Cl)nc3)c(OC)c2)cc1OC,-0.811
10,CCC/N=C1\S/C(=C\c2ccc(OC[C@H](O)CO)c(Cl)c2)C(=O)N1c1ccccc1C [Ponesimod],1.14
11,Nc1nc(N)c2nc(-c3cccc(O)c3)cnc2n1,-1.39
12,CN1CCN2c3ccccc3Cc3ccccc3C2C1 (stereo not given) [Mianserin HCl],-0.642
13,CCC(NC(C)C)C(O)c1ccc(O)c(O)c1 (stereo not given) [Isoetharine Mesylate],-0.244
14,CCC[C@H](NC(=O)/C(C#N)=C/c1cccc(Br)n1)c1ccccc1 [Degrasyn (WP1130)],0.973
15,CCC[S+]([O-])c1ccc2[nH]c(NC(=O)OC)nc2c1 (stereo not given) [Albendazole Oxide],0.168
16,COc1ccc(-c2ccc3cc(C(=O)O)ccc3c2)cc1C12CC3CC(CC(C3)C1)C2 [Adapalene],0.245
17,Cc1ccc(C(=O)N(CCCN)[C@@H](c2oc3cc(Cl)ccc3c(=O)c2Cc2ccccc2)C(C)C)cc1,-16.4
18,COc1cc(C=O)ccc1O [Vanillin],2.67
19,Oc1cc2c(cc1O)[C@@H]1c3ccc(O)c(O)c3OC[C@]1(O)C2 [Hematoxylin],-0.366
20,CC(C)/N=c1\cc2n(-c3ccc(Cl)cc3)c3ccccc3nc-2cc1Nc1ccc(Cl)cc1 [Clofazimine],-0.455

# Part of the list above, set out differently:
row	SMILES	nucleus area z-score
14	CCC[C@H](NC(=O)/C(C#N)=C/c1cccc(Br)n1)c1ccccc1 [Degrasyn (WP1130)]	0.973
17	Cc1ccc(C(=O)N(CCCN)[C@@H](c2oc3cc(Cl)ccc3c(=O)c2Cc2ccccc2)C(C)C)cc1	-16.4

# — the supplement of paper PMC11348887
